Measurements published in PubChem BioAssay AID256 (DTP/NCI, 2004).
The list is a part of this screen's results and no random one: it is rich in T/C values a quarter to a half above the control, in often repeated tests (any T/C) and in doses without a T/C. Further doses and runs are listed elsewhere. T/C: endpoint of the treated group in % of that of the vehicle group. Some doses have a count of surviving animals in place of a T/C: the source files T/C as zero there, which appears to mark a toxic dose or a test without result, not a measured value. Some doses without a T/C left all or most animals alive at the check, yet need not have been tolerated: the source hardly ever lists a survival T/C far under the control, and the zero likely stands for such cases as well. Survivors were counted at the toxicity check, usually on the fifth day, unless a day is given; later deaths do not show. Schedules are NCI's codes, read here as Q, the interval in days (D) or hours (H), X, the number of doses. For survival time, the PubChem record calls one and a half times the control and up active, and a quarter to a half above the control has no call in these data; cut-offs in other NCI protocols can differ. Some entries hold several experiments; their values stand side by side, smallest first.

Test system: CD2F1 mice, L1210 leukemia ip, survival T/C
Test: NCI In Vivo Anticancer Drug Screen. Data for tumor model L1210 Leukemia (intraperitoneal) in CD2F1 (CDF1) mice
Conditions: higher T/C = longer survival
Outline: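 In this screen, transplantable tumors were grown in mice given either the compound or its vehicle. Results were expressed as the treated measurement relative to the control measurement.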

[1] = T/C endpoint: mean survival time, dose: 100.0 mg/kg/injection, schedule: Q04DX003 (ip), vehicle: saline with Tween-80
[2] = T/C endpoint: mean survival time, dose: 400.0 mg/kg/injection, schedule: Q01DX009 (ip), vehicle: saline with Tween-80
[3] = T/C endpoint: mean survival time, dose: 400.0 mg/kg/injection, schedule: Q01DX001 (ip), vehicle: saline with Tween-80
[4] = T/C endpoint: mean survival time, dose: 400.0 mg/kg/injection, schedule: Q04DX003 (ip), vehicle: saline with Tween-80
[5] = T/C endpoint: mean survival time, dose: 400.0 mg/kg/injection, schedule: Q01DX001 (ip), vehicle: saline
[6] = T/C endpoint: mean survival time, dose: 200.0 mg/kg/injection, schedule: Q04DX003 (ip), vehicle: saline with Tween-80
[7] = T/C endpoint: mean survival time, dose: 100.0 mg/kg/injection, schedule: Q04DX003 (ip), vehicle: saline
[8] = T/C endpoint: mean survival time, dose: 200.0 mg/kg/injection, schedule: Q04DX003 (ip), vehicle: saline
[9] = T/C endpoint: mean survival time, dose: 400.0 mg/kg/injection, schedule: Q04DX003 (ip), vehicle: saline
[10] = T/C endpoint: mean survival time, dose: 50.0 mg/kg/injection, schedule: Q01DX005 (ip), vehicle: water
[11] = T/C endpoint: mean survival time, dose: 200.0 mg/kg/injection, schedule: Q04DX002 (ip), vehicle: saline with Tween-80

Q: What does the source list for `CC(O)CNCCNc1ccc(NCCNCC(C)O)c2c1C(=O)c1c(O)ccc(O)c1C2=O` (stereo not drawn)?
A: T/C (T/C endpoint: mean survival time, dose: 1.0 mg/kg/injection, schedule: Q01DX005 (ip), vehicle: water): 125 % of control; T/C (T/C endpoint: mean survival time, dose: 2.0 mg/kg/injection, schedule: Q01DX005 (ip), vehicle: water): 131 % of control; T/C (T/C endpoint: mean survival time, dose: 4.0 mg/kg/injection, schedule: Q01DX005 (ip), vehicle: water): 143 % of control

Q: Which survivor count [1] does the source give for `CCC(=O)Nc1ccccc1OS(=O)(=O)N(C)C` here?
A: The survivor count was 6 of 6.

Q: `COc1ccc(NC(=O)C(Cl)Cl)ccc1=O` was tested. Which survivor count [2] did it give?
A: The survivor count was 3 of 6.

Q: How did the survivor count [3] turn out when `CC(/C=N\O)=N\O` was run?
A: Its survivor count is 0 of 6.

Q: `CCCCCCN(CCCCCC)CC(O)c1cccc2c1cc(Cl)c1ccccc12` (stereo not drawn) was tested. Which survivor count [4] did it give?
A: Its survivor count is 6 of 6.

Q: Which survivor count [2] does the source give for `C1=CC2C3C=CC(CC3)C2CC1` (stereo not drawn) here?
A: The survivor count was 0 of 6.

Q: With `CCCCNC(C)(C)C(SS)c1ccc(C(F)(F)F)cc1` (stereo not drawn) as the molecule, how does the survivor count (T/C endpoint: mean survival time, dose: 200.0 mg/kg/injection, schedule: Q04DX003 (ip), vehicle: other) read?
A: Its survivor count is 6 of 6.

Q: Which survivor count (T/C endpoint: mean survival time, dose: 200.0 mg/kg/injection, schedule: Q01DX001 (ip), vehicle: saline) does the source give for `CCOc1ccc(/C=C/c2cc[n+](C)cc2)cc1OC` here?
A: The survivor count was 0 of 6.

Q: And the survivor count [5]?
A: Its survivor count is 0 of 6.

Q: With `Cc1ccc(Cc2cc(=O)[nH]c(=O)[nH]2)cc1` as the molecule, how does the survivor count (T/C endpoint: mean survival time, dose: 50.0 mg/kg/injection, schedule: Q01DX009 (ip), vehicle: Klucel (hydroxypropylcellulose) (HPC)) read?
A: Its survivor count is 3 of 3.

Q: What about the survivor count (T/C endpoint: mean survival time, dose: 200.0 mg/kg/injection, schedule: Q01DX009 (ip), vehicle: Klucel (hydroxypropylcellulose) (HPC)) of the same molecule?
A: The survivor count was 3 of 3.

Q: With `CC(C)CSCC1OC(n2cnc3c(N)nccc32)C(O)C1O` (stereo not drawn) as the molecule, how does the survivor count (T/C endpoint: mean survival time, dose: 200.0 mg/kg/injection, schedule: Q01DX005 (ip), vehicle: distilled water + Tween-80) read?
A: Its survivor count is 3 of 6.

Q: How did the survivor count [5] turn out when `C=CCSc1cccc(C)c1` was run?
A: The survivor count was 3 of 6.

Q: Which survivor count (T/C endpoint: mean survival time, dose: 100.0 mg/kg/injection, schedule: Q01DX001 (ip), vehicle: acetone) does the source give for `C=C(Cl)CNC` here?
A: Its survivor count is 0 of 6.

Q: What about the survivor count (T/C endpoint: mean survival time, dose: 200.0 mg/kg/injection, schedule: Q01DX001 (ip), vehicle: acetone) of the same molecule?
A: Its survivor count is 0 of 6.

Q: And the survivor count (T/C endpoint: mean survival time, dose: 400.0 mg/kg/injection, schedule: Q01DX001 (ip), vehicle: acetone)?
A: Its survivor count is 0 of 6.

Q: Which results are given for `O=C1C=CC(=O)N1c1ccc(Cl)cc1[N+](=O)[O-]`?
A: survivor count (T/C endpoint: mean survival time, dose: 6.25 mg/kg/injection, schedule: Q01DX009 (ip), vehicle: saline with Tween-80): 6 of 6; survivor count [1]: 2 of 6; survivor count [6]: 2 of 6; survivor count [4]: 0 of 6

Q: Which survivor count (T/C endpoint: mean survival time, dose: 20.0 mg/kg/injection, schedule: Q04DX003 (ip), vehicle: saline with Tween-80) does the source give for `N#CC1(O)CCCCC1` here?
A: Its survivor count is 0 of 6.

Q: `CC(C(=O)O)[Se](=O)O` (stereo not drawn) was tested. Which survivor count [7] did it give?
A: The survivor count was 1 of 3.

Q: What about the survivor count [8] of the same molecule?
A: The survivor count was 0 of 3.

Q: And the survivor count [9]?
A: Its survivor count is 0 of 3.

Q: `NNc1ccc2ccccc2n1` was tested. Which survivor count [7] did it give?
A: Its survivor count is 0 of 6.

Q: And the survivor count [8]?
A: The survivor count was 0 of 6.

Q: What about the survivor count [9] of the same molecule?
A: Its survivor count is 0 of 6.

Q: For `CC(=O)/C(=N/O)c1ccccc1`, which survivor count (T/C endpoint: mean survival time, dose: 300.0 mg/kg/injection, schedule: Q01DX009 (ip), vehicle: saline with Tween-80) is on record?
A: Its survivor count is 0 of 6.

Q: Which results are given for `Cc1ccc([P+](Cc2ccccc2)(c2ccccc2)c2ccccc2)cc1`?
A: survivor count (T/C endpoint: mean survival time, dose: 75.0 mg/kg/injection, schedule: Q01DX001 (ip), vehicle: saline): 0 of 6; survivor count (T/C endpoint: mean survival time, dose: 80.0 mg/kg/injection, schedule: Q01DX001 (ip), vehicle: saline): 0 of 6; survivor count (T/C endpoint: mean survival time, dose: 150.0 mg/kg/injection, schedule: Q01DX001 (ip), vehicle: saline): 0 of 6; survivor count (T/C endpoint: mean survival time, dose: 300.0 mg/kg/injection, schedule: Q01DX001 (ip), vehicle: saline): 0 of 6

Q: `O=c1[nH]c(=O)n(C2CC(O)C(CO)O2)cc1S` (stereo not drawn) was tested. Which T/C [10] did it give?
A: The T/C was 125 % of control.

Q: What about the T/C (T/C endpoint: mean survival time, dose: 100.0 mg/kg/injection, schedule: Q01DX005 (ip), vehicle: water) of the same molecule?
A: Its T/C is 129 % of control.

Q: What about the T/C (T/C endpoint: mean survival time, dose: 200.0 mg/kg/injection, schedule: Q01DX005 (ip), vehicle: water) of the same molecule?
A: The T/C was 127 and 137 % of control.

Q: And the T/C (T/C endpoint: mean survival time, dose: 400.0 mg/kg/injection, schedule: Q01DX005 (ip), vehicle: water)?
A: The T/C was 129 % of control.

Q: For `CC(C)(C)OC(=O)NC(Cc1c[nH]c2ccccc12)C(=O)ON1C(=O)CCC1=O` (stereo not drawn), which survivor count [4] is on record?
A: Its survivor count is 2 of 6.

Q: `N#C/C(=C\C1CCCCC1Cl)C1CCC([N+](=O)[O-])CC1` (stereo not drawn) was tested. Which survivor count [11] did it give?
A: Its survivor count is 3 of 3.

Q: With `CNCC(=O)NC(CO)C(=O)NC(CO)C(=O)NC1C(C(N)=O)OC(n2ccc(N)nc2=O)C(O)C1O` (stereo not drawn) as the molecule, how does the survivor count (T/C endpoint: mean survival time, dose: 1.5 mg/kg/injection, schedule: Q01DX005 (ip), vehicle: water) read?
A: The survivor count was 4 of 6.

Q: What about the survivor count (T/C endpoint: mean survival time, dose: 3.0 mg/kg/injection, schedule: Q01DX005 (ip), vehicle: water) of the same molecule?
A: The survivor count was 3 of 6.

Q: What about the survivor count (T/C endpoint: mean survival time, dose: 3.13 mg/kg/injection, schedule: Q01DX005 (ip), vehicle: water) of the same molecule?
A: The survivor count was 3 of 6.

Q: What about the survivor count (T/C endpoint: mean survival time, dose: 6.25 mg/kg/injection, schedule: Q01DX005 (ip), vehicle: water) of the same molecule?
A: The survivor count was 1 of 6.

Q: What about the survivor count (T/C endpoint: mean survival time, dose: 12.5 mg/kg/injection, schedule: Q01DX005 (ip), vehicle: water) of the same molecule?
A: Its survivor count is 0 of 6.

Q: And the survivor count (T/C endpoint: mean survival time, dose: 25.0 mg/kg/injection, schedule: Q01DX005 (ip), vehicle: water)?
A: The survivor count was 0 of 6.

Q: And the survivor count [10]?
A: Its survivor count is 0 of 6.

Q: `OC(CBr)C(O)CBr` (stereo not drawn) was tested. Which survivor count (T/C endpoint: mean survival time, dose: 200.0 mg/kg/injection, schedule: Q01DX009 (ip), vehicle: saline with Tween-80) did it give?
A: Its survivor count is 3 of 6.

Q: What about the survivor count (T/C endpoint: mean survival time, dose: 200.0 mg/kg/injection, schedule: Q01DX009 (ip), vehicle: saline) of the same molecule?
A: Its survivor count is 0 of 3.

Q: What about the survivor count [3] of the same molecule?
A: Its survivor count is 0 of 6.

Q: And the survivor count [4]?
A: Its survivor count is 3 of 6.

Q: `O=C(CC([Se]c1ccccc1)c1ccccc1)c1ccccc1` (stereo not drawn) was tested. Which survivor count [4] did it give?
A: Its survivor count is 3 of 6.

Q: How did the survivor count (T/C endpoint: mean survival time, dose: 75.0 mg/kg/injection, schedule: Q01DX001 (ip), vehicle: other) turn out when `CCN1/C(=C\c2ccc3cc(C)ccc3[n+]2CC)[Se]c2ccccc21` was run?
A: The survivor count was 0 of 6.

Q: And the survivor count (T/C endpoint: mean survival time, dose: 150.0 mg/kg/injection, schedule: Q01DX001 (ip), vehicle: other)?
A: The survivor count was 0 of 6.

Q: And the survivor count (T/C endpoint: mean survival time, dose: 300.0 mg/kg/injection, schedule: Q01DX001 (ip), vehicle: other)?
A: The survivor count was 0 of 6.

Q: Which results are given for `Cc1ccc(C)c(C(C)NC2=NCCO2)c1` (stereo not drawn)?
A: survivor count [6]: 0 of 6; survivor count [4]: 0 of 6

Q: How did the survivor count (T/C endpoint: mean survival time, dose: 3000.0 mg/kg/injection, schedule: Q01DX009 (ip), vehicle: saline) turn out when `CS(C)=O` was run?
A: Its survivor count is 6 of 6.

Q: And the survivor count (T/C endpoint: mean survival time, dose: 3.0 grams/kg/injection, schedule: Q01DX009 (ip), vehicle: saline)?
A: Its survivor count is 6 of 6.

Q: For `O=C(O)/C=N/NS(=O)(=O)c1ccc2ccccc2c1`, which survivor count (T/C endpoint: mean survival time, dose: 400.0 mg/kg/injection, schedule: Q04DX003 (ip), vehicle: other) is on record?
A: The survivor count was 3 of 6.

Q: Which survivor count (T/C endpoint: median survival time, dose: 50.0 mg/kg/injection, schedule: Q01DX009 (ip), vehicle: saline) does the source give for `COc1ccc(C(=O)C(CN(C)C)CN(C)C)cc1` here?
A: The survivor count was 1 of 6.

Q: `CCCCCCCCCCCCCCCCCCOCCOCCOCCOCCO` was tested. Which survivor count (T/C endpoint: mean survival time, dose: 100.0 mg/kg/injection, schedule: Q04DX002 (ip), vehicle: saline with Tween-80) did it give?
A: Its survivor count is 1 of 3.

Q: What about the survivor count [11] of the same molecule?
A: Its survivor count is 0 of 3.
